{"source": "the supplement of paper PMC8728848", "binders": {"B1": {"name": "GS13599A-bth-520-23-520 (Bacteroides thetaiotaomicron) (protein)", "chain": "SEDTMDRINKDHDHTTSVASRFILADVITSTAFSNASGDINTYASSYIEYEVGVDNQLYYAEVRENEPSSSSTFNNSWNGIYSSLKNARIIIDQCGEGGRDHGNDVTRGMAEVMAAYNCALIADFFGDAPCSQAALVDEKGSPVYMTPKMDTQQEIYTQIISYLDDAIANLQKEDLADVTEQDFLYAGDADKWLKFAYGLKARYTMRLINRSSNKSADYEKVLDYVSKSFTSADDQAAFDIYDSNNINPFYGFYNSRAGFGASTSLGTKLLAYNDPRANRAFFTPIVDKKRSQVAANDPSLVPAPNGSPDQSTSKYGISAFVYAKTAPTLLMSYHELMFLKAEALCRLNRDAEDALKEAVVAGLLNAENSISIAIKELGSGLNTNSSEVITETSAGKYFDDVVKAKYAANPLQETMIQKYLAMWGASGEATETYNDFRRMKGLNENFITLTNPNNSSKFPLRYPYGNSDTAANPEVKAAYGNGDYVYSEPVWWAGGSR"}}, "assay_in_all_cases": "glycan array binding signal (z-score within array); higher = stronger binding", "details_in_all_cases": "glycan notation: IUPAC condensed, linker removed", "key": {"Fuc(a1-3)GlcNAc": {"biological_target": "Fuc(a1-3)GlcNAc", "in_short": "(§1)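 Arrays were curated from the Consortium for Functional Glycomics database, 3228 in total, and kept only where the protein sequence was available. Binding is expressed as a within-array Z-score. This score was averaged across arrays of the same protein sequence at different concentrations or buffers and across linkers, and negative values can be read as non-binding.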"}, "[1]": {"biological_target": "Fuc(a1-3)[Gal(b1-4)]Glc6S", "in_short": "as §1"}, "[2]": {"biological_target": "Fuc(a1-3)[Gal(b1-4)]GlcNAc", "in_short": "as §1"}, "[3]": {"biological_target": "Fuc(a1-3)[Gal(b1-4)]GlcNAc(b1-2)Man", "in_short": "as §1"}, "[4]": {"biological_target": "Fuc(a1-3)[Gal(b1-4)]GlcNAc(b1-2)Man(a1-3)[Fuc(a1-3)[Gal(b1-4)]GlcNAc(b1-2)Man(a1-6)]Man(b1-4)GlcNAc(b1-4)GlcNAc", "in_short": "as §1"}, "[5]": {"biological_target": "Fuc(a1-3)[Gal(b1-4)]GlcNAc(b1-2)Man(a1-3)[Fuc(a1-3)[Gal(b1-4)]GlcNAc(b1-2)Man(a1-6)]Man(b1-4)GlcNAc(b1-4)[Fuc(a1-6)]GlcNAc", "in_short": "as §1"}, "[6]": {"biological_target": "Fuc(a1-3)[Gal(b1-4)]GlcNAc(b1-3)Gal(b1-3)[Fuc(a1-4)]GlcNAc", "in_short": "as §1"}, "[7]": {"biological_target": "Fuc(a1-3)[Gal(b1-4)]GlcNAc(b1-3)Gal(b1-4)[Fuc(a1-3)]GlcNAc", "in_short": "as §1"}, "[8]": {"biological_target": "Fuc(a1-3)[Gal(b1-4)]GlcNAc(b1-3)Gal(b1-4)[Fuc(a1-3)]GlcNAc(b1-3)Gal(b1-4)[Fuc(a1-3)]GlcNAc", "in_short": "as §1"}, "[9]": {"biological_target": "Fuc(a1-3)[Gal(b1-4)]GlcNAc(b1-3)GalNAc", "in_short": "as §1"}, "[10]": {"biological_target": "Fuc(a1-3)[Gal(b1-4)]GlcNAc(b1-6)GalNAc", "in_short": "as §1"}, "[11]": {"biological_target": "Fuc(a1-3)[Gal(b1-4)]GlcNAc(b1-6)[Gal(b1-3)GlcNAc(b1-3)]Gal(b1-4)Glc", "in_short": "as §1"}, "[12]": {"biological_target": "Fuc(a1-3)[Gal(b1-4)]GlcNAc6S", "in_short": "as §1"}, "[13]": {"biological_target": "Fuc(a1-3)[Gal3S(b1-4)]Glc", "in_short": "as §1"}, "[14]": {"biological_target": "Fuc(a1-3)[Gal3S(b1-4)]GlcNAc", "in_short": "as §1"}, "[15]": {"biological_target": "Fuc(a1-3)[Gal3S(b1-4)]GlcNAc6S", "in_short": "as §1"}, "[16]": {"biological_target": "Fuc(a1-3)[GalNAc(b1-4)]GlcNAc", "in_short": "as §1"}, "[17]": {"biological_target": "Fuc(a1-3)[GalNAc(b1-4)]GlcNAc6S", "in_short": "as §1"}, "Fuc(a1-4)GlcNAc": {"biological_target": "Fuc(a1-4)GlcNAc", "in_short": "as §1"}, "Fuc(b1-3)GlcNAc": {"biological_target": "Fuc(b1-3)GlcNAc", "in_short": "as §1"}, "Gal(a1-2)Gal": {"biological_target": "Gal(a1-2)Gal", "in_short": "as §1"}, "Gal(a1-3)Gal": {"biological_target": "Gal(a1-3)Gal", "in_short": "as §1"}, "Gal(a1-3)Gal(b1-3)GlcNAc": {"biological_target": "Gal(a1-3)Gal(b1-3)GlcNAc", "in_short": "as §1"}, "[18]": {"biological_target": "Gal(a1-3)Gal(b1-3)GlcNAc(b1-2)Man", "in_short": "as §1"}, "[19]": {"biological_target": "Gal(a1-3)Gal(b1-3)GlcNAc(b1-2)Man(a1-3)[Gal(a1-3)Gal(b1-3)GlcNAc(b1-2)Man(a1-6)]Man(b1-4)GlcNAc(b1-4)GlcNAc", "in_short": "as §1"}, "[20]": {"biological_target": "Gal(a1-3)Gal(b1-3)GlcNAc(b1-3)GalNAc", "in_short": "as §1"}, "[21]": {"biological_target": "Gal(a1-3)Gal(b1-3)GlcNAc(b1-6)GalNAc", "in_short": "as §1"}, "[22]": {"biological_target": "Gal(a1-3)Gal(b1-3)[Fuc(a1-4)]GlcNAc(b1-2)Man(a1-3)[Gal(a1-3)Gal(b1-3)[Fuc(a1-4)]GlcNAc(b1-2)Man(a1-6)]Man(b1-4)GlcNAc(b1-4)GlcNAc", "in_short": "as §1"}, "Gal(a1-3)Gal(b1-4)Glc": {"biological_target": "Gal(a1-3)Gal(b1-4)Glc", "in_short": "as §1"}, "Gal(a1-3)Gal(b1-4)GlcNAc": {"biological_target": "Gal(a1-3)Gal(b1-4)GlcNAc", "in_short": "as §1"}, "[23]": {"biological_target": "Gal(a1-3)Gal(b1-4)GlcNAc(b1-2)Man", "in_short": "as §1"}, "[24]": {"biological_target": "Gal(a1-3)Gal(b1-4)GlcNAc(b1-2)Man(a1-3)[Gal(a1-3)Gal(b1-4)GlcNAc(b1-2)Man(a1-6)]Man(b1-4)GlcNAc(b1-4)GlcNAc", "in_short": "as §1"}, "[25]": {"biological_target": "Gal(a1-3)Gal(b1-4)GlcNAc(b1-3)GalNAc", "in_short": "as §1"}, "[26]": {"biological_target": "Gal(a1-3)Gal(b1-4)GlcNAc(b1-6)GalNAc", "in_short": "as §1"}, "[27]": {"biological_target": "Gal(a1-3)Gal(b1-4)[Fuc(a1-3)]GlcNAc", "in_short": "as §1"}, "[28]": {"biological_target": "Gal(a1-3)Gal(b1-4)[Fuc(a1-3)]GlcNAc(b1-2)Man(a1-3)[Gal(a1-3)Gal(b1-4)[Fuc(a1-3)]GlcNAc(b1-2)Man(a1-6)]Man(b1-4)GlcNAc(b1-4)GlcNAc", "in_short": "as §1"}, "Gal(a1-3)GalNAc": {"biological_target": "Gal(a1-3)GalNAc", "in_short": "as §1"}, "[29]": {"biological_target": "Gal(a1-3)[Gal(a1-4)]Gal(b1-4)GlcNAc", "in_short": "as §1"}, "[30]": {"biological_target": "Gal(a1-4)Gal(b1-3)GlcNAc(b1-2)Man(a1-3)[Gal(a1-4)Gal(b1-3)GlcNAc(b1-2)Man(a1-6)]Man(b1-4)GlcNAc(b1-4)GlcNAc", "in_short": "as §1"}, "Gal(a1-4)Gal(b1-4)Glc": {"biological_target": "Gal(a1-4)Gal(b1-4)Glc", "in_short": "as §1"}, "Gal(a1-4)Gal(b1-4)GlcNAc": {"biological_target": "Gal(a1-4)Gal(b1-4)GlcNAc", "in_short": "as §1"}, "[31]": {"biological_target": "Gal(a1-4)Gal(b1-4)GlcNAc(b1-2)Man(a1-3)[Gal(a1-4)Gal(b1-4)GlcNAc(b1-2)Man(a1-6)]Man(b1-4)GlcNAc(b1-4)GlcNAc", "in_short": "as §1"}, "[32]": {"biological_target": "Gal(a1-4)Gal(b1-4)GlcNAc(b1-3)Gal(b1-4)Glc", "in_short": "as §1"}, "Gal(a1-4)GlcNAc": {"biological_target": "Gal(a1-4)GlcNAc", "in_short": "as §1"}, "Gal(a1-6)Glc": {"biological_target": "Gal(a1-6)Glc", "in_short": "as §1"}}, "note": "This is one part of the list."}
{"binder": "B1", "values": [{"measurement": "glycan array binding signal (z-score)", "setting": "Fuc(a1-3)GlcNAc", "result": 0.449}, {"measurement": "glycan array binding signal (z-score)", "setting": "[1]", "result": 0.474}, {"measurement": "glycan array binding signal (z-score)", "setting": "[2]", "result": -0.868}, {"measurement": "glycan array binding signal (z-score)", "setting": "[3]", "result": 0.223}, {"measurement": "glycan array binding signal (z-score)", "setting": "[4]", "result": 0.707}, {"measurement": "glycan array binding signal (z-score)", "setting": "[5]", "result": 0.992}, {"measurement": "glycan array binding signal (z-score)", "setting": "[6]", "result": -1.03}, {"measurement": "glycan array binding signal (z-score)", "setting": "[7]", "result": 0.787}, {"measurement": "glycan array binding signal (z-score)", "setting": "[8]", "result": -0.194}, {"measurement": "glycan array binding signal (z-score)", "setting": "[9]", "result": -0.74}, {"measurement": "glycan array binding signal (z-score)", "setting": "[10]", "result": -0.71}, {"measurement": "glycan array binding signal (z-score)", "setting": "[11]", "result": -0.479}, {"measurement": "glycan array binding signal (z-score)", "setting": "[12]", "result": -0.749}, {"measurement": "glycan array binding signal (z-score)", "setting": "[13]", "result": -0.952}, {"measurement": "glycan array binding signal (z-score)", "setting": "[14]", "result": 0.884}, {"measurement": "glycan array binding signal (z-score)", "setting": "[15]", "result": 1.29}, {"measurement": "glycan array binding signal (z-score)", "setting": "[16]", "result": 1.83}, {"measurement": "glycan array binding signal (z-score)", "setting": "[17]", "result": -0.671}, {"measurement": "glycan array binding signal (z-score)", "setting": "Fuc(a1-4)GlcNAc", "result": 0.385}, {"measurement": "glycan array binding signal (z-score)", "setting": "Fuc(b1-3)GlcNAc", "result": 0.279}, {"measurement": "glycan array binding signal (z-score)", "setting": "Gal(a1-2)Gal", "result": -0.707}, {"measurement": "glycan array binding signal (z-score)", "setting": "Gal(a1-3)Gal", "result": -0.044}, {"measurement": "glycan array binding signal (z-score)", "setting": "Gal(a1-3)Gal(b1-3)GlcNAc", "result": -0.349}, {"measurement": "glycan array binding signal (z-score)", "setting": "[18]", "result": 0.438}, {"measurement": "glycan array binding signal (z-score)", "setting": "[19]", "result": 1.47}, {"measurement": "glycan array binding signal (z-score)", "setting": "[20]", "result": -0.659}, {"measurement": "glycan array binding signal (z-score)", "setting": "[21]", "result": -0.97}, {"measurement": "glycan array binding signal (z-score)", "setting": "[22]", "result": 1.41}, {"measurement": "glycan array binding signal (z-score)", "setting": "Gal(a1-3)Gal(b1-4)Glc", "result": 0.356}, {"measurement": "glycan array binding signal (z-score)", "setting": "Gal(a1-3)Gal(b1-4)GlcNAc", "result": -0.032}, {"measurement": "glycan array binding signal (z-score)", "setting": "[23]", "result": -0.226}, {"measurement": "glycan array binding signal (z-score)", "setting": "[24]", "result": -0.388}, {"measurement": "glycan array binding signal (z-score)", "setting": "[25]", "result": -0.774}, {"measurement": "glycan array binding signal (z-score)", "setting": "[26]", "result": -0.591}, {"measurement": "glycan array binding signal (z-score)", "setting": "[27]", "result": -0.005}, {"measurement": "glycan array binding signal (z-score)", "setting": "[28]", "result": -0.089}, {"measurement": "glycan array binding signal (z-score)", "setting": "Gal(a1-3)GalNAc", "result": -1.08}, {"measurement": "glycan array binding signal (z-score)", "setting": "[29]", "result": 1.41}, {"measurement": "glycan array binding signal (z-score)", "setting": "[30]", "result": 1.13}, {"measurement": "glycan array binding signal (z-score)", "setting": "Gal(a1-4)Gal(b1-4)Glc", "result": 0.257}, {"measurement": "glycan array binding signal (z-score)", "setting": "Gal(a1-4)Gal(b1-4)GlcNAc", "result": -0.121}, {"measurement": "glycan array binding signal (z-score)", "setting": "[31]", "result": 0.106}, {"measurement": "glycan array binding signal (z-score)", "setting": "[32]", "result": -0.078}, {"measurement": "glycan array binding signal (z-score)", "setting": "Gal(a1-4)GlcNAc", "result": 0.278}, {"measurement": "glycan array binding signal (z-score)", "setting": "Gal(a1-6)Glc", "result": -1.08}]}
